## Library compounds against nucleic acid targets

Targets (5′ to 3′):
SAM-II: SAM-II riboswitch RNA pseudoknot, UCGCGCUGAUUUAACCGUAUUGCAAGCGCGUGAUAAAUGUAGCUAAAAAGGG. About 21,000 compounds screened, about 200 hits.
PreQ1: PreQ1 riboswitch RNA pseudoknot, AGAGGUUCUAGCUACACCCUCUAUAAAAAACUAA. From B. subtilis. About 24,000 compounds screened, about 170 hits.
TPP: TPP riboswitch RNA three-way junction, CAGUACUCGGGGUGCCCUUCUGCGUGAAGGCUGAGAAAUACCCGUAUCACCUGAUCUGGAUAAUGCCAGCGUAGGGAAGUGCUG. About 24,000 compounds screened, about 160 hits.

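Each compound is printed as two spots on a slide made to bind it covalently, so it has no test concentration; the read-out is fluorescence of the bound, labelled oligonucleotide. For the PreQ1, TPP and SAM-II riboswitches the laboratory earlier reported (doi:10.1038/s41467-019-09493-3) 1 µM RNA, 2 h, and a rule that included a mean Z-score above 3 (spot signal-to-noise against the whole library), a score well above that on a control array, and duplicate spots agreeing (coefficient of variation under 100). The data file gives only the calls; its cut-offs may differ, and compounds hitting several targets are kept. These are primary screening calls, not affinities; a compound without a hit may have attached poorly or may still bind in solution.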 A compound is marked 1 if it was called a hit and 0 if it was screened but was not. This is an unselected part of the compounds tested. A dash means that no call is listed here.

| # | compound | SAM-II | PreQ1 | TPP |
|---|---|---|---|---|
| 1 | `Cc1ccc2c(c1)C(NC(=O)CCc1cc3n(n1)CCNC3)CC(C)(C)O2` (centres unmarked) | 0 | 0 | 0 |
| 2 | `CN1CCN(C2=c3ccccc3=Nc3ccc(Cl)cc3N2)CC1` | 0 | 0 | 0 |
| 3 | `CN1CCN(c2ncc(-c3cc(Cl)cc(Cl)c3Cl)c(N)n2)CC1` | 0 | 0 | 0 |
| 4 | `Cc1ccc(-c2noc(CNc3cc(C)cc(C)c3)n2)cc1` | 0 | 0 | 0 |
| 5 | `CC(C)(O)CCc1ccc(C(=O)N2CCOCC2CO)cc1` (centres unmarked) | 0 | 0 | 0 |
| 6 | `COc1ccccc1-n1nnc(-c2nc(-c3ccc(F)cc3)no2)c1N` | - | 0 | 0 |
| 7 | `COc1ccc(-c2cnc(NCc3ccc(C(F)(F)F)cc3)n2C)cc1` | 0 | 0 | 0 |
| 8 | `O=C(O)c1sc2ccccc2c1Nc1ccccc1` | 0 | 0 | 0 |
| 9 | `COc1ccc2c(c1)c(CC(=O)OCC(=O)O)c(C)n2C(=O)c1ccc(Cl)cc1` | 0 | 0 | 0 |
| 10 | `OC(COc1ccc2ccccc2c1)CN1CCN(c2cccc(C(F)(F)F)c2)CC1` (centres unmarked) | 0 | 0 | 0 |
| 11 | `Cc1cnc(C(=O)N2CC3(CCNCC3)CC2C(=O)O)cn1` (centres unmarked) | 0 | 0 | 0 |
| 12 | `CCc1ccc(Nc2ncc3c(n2)CC(c2cccs2)CC3=O)cc1` (centres unmarked) | 0 | 0 | 0 |
| 13 | `CCNC(=O)[C@@H]1C[C@H](NC(=O)c2c[nH]c(=O)c3ccccc23)CN1CCO` | 0 | 0 | 0 |
| 14 | `Cc1cc(C)c(NC(=O)Cn2nnc(C(=O)NCCc3ccccc3)c2N)c(C)c1` | 0 | 0 | 0 |
| 15 | `CCOc1ccc([C@H]2C[C@@H](c3ccccc3Cl)Nc3nc(N)nn32)cc1` | 0 | 0 | 0 |
| 16 | `O=C1CC[C@H]2CN(S(=O)(=O)N3CCCC3)CC[C@H]2N1CCCCO` | 0 | 0 | 0 |
| 17 | `O=C(NCCOc1ccccc1F)[C@H]1Cc2ccccc2CN1` | 0 | 0 | 0 |
| 18 | `COc1ccccc1Nc1ncnc2ccc(Br)cc12` | 0 | 0 | 0 |
| 19 | `COc1ccc2c(c1OC)C(=O)OC2Nc1cccc(C)n1` (centres unmarked) | 0 | 0 | 0 |
| 20 | `CS(=O)(=O)N1C[C@H](NC(=O)c2ccc(N)nc2)[C@@H](C2CC2)C1` | 0 | 0 | 0 |
| 21 | `CC1=NN=C(c2ccc(N)cc2)c2cc3c(cc2C1)OCO3` | 0 | 0 | 0 |
| 22 | `CCOC(=O)C(=CNc1ccccc1Cl)C(=O)OCC` | 0 | 0 | 0 |
| 23 | `Cc1cc2c(c(=O)n1Cc1ccccn1)C(c1ccccc1F)C(C#N)=C(N)O2` (centres unmarked) | 0 | 0 | 0 |
| 24 | `c1cc2c(cc1N1CCC(NCCSc3cnn[nH]3)CC1)OCO2` | 0 | 0 | 0 |
| 25 | `CCOC(=O)N1CCC(Nc2nc(-c3cccnc3)nc3c2CCNC3)CC1` | 0 | 0 | 0 |
| 26 | `CCOC(=O)c1cnn(-c2cc(C)nc3c(C)c(-c4ccc(OC)cc4)nn23)c1N` | - | 0 | 0 |
| 27 | `O=C(NC(=S)Nc1cc(Cl)ccc1O)c1cccc(Br)c1` | 0 | 0 | 0 |
| 28 | `CN(C)C(=O)[C@H](O)[C@H](Cc1ccccc1)NC(=O)c1cc2cc(Cl)ccc2[nH]1` | 0 | 0 | 0 |
| 29 | `COc1ccc(C(O)C(Nc2ccccc2)c2nc3ccccc3n2C)cc1` (centres unmarked) | 0 | 0 | 0 |
| 30 | `O=C1C2CC=C(Cl)CC2C(=O)N1CCO` (centres unmarked) | 0 | 0 | 0 |
| 31 | `COCc1[nH]nc2c1C(c1c(F)cccc1Cl)C(C#N)=C(N)O2` (centres unmarked) | 0 | 0 | 0 |
| 32 | `Cc1ccc(Nc2nc(N)nc(CSc3nccn3C)n2)c(C)c1` | 0 | 0 | 0 |
| 33 | `O=C1[C@H]2CC[C@H](CN(Cc3cccc(OCCO)c3)C2)N1Cc1ccccn1` | 0 | 0 | 0 |
| 34 | `Cn1c(=O)n(C)c2cc(CNc3ccc(N4CCOCC4)c(C(=O)O)c3)ccc21` | 0 | 0 | 0 |
| 35 | `CCOC(=O)c1c(N)nn(C(=O)c2ccc(Br)cc2)c1-c1ccccc1` | 0 | 0 | 0 |
| 36 | `CCCCN1C(=O)CC2CCOC21C` (centres unmarked) | 0 | 0 | 0 |
| 37 | `CCc1ccccc1NC(=O)c1nnn(CC(=O)Nc2ccc(C)cc2)c1N` | 0 | 0 | 0 |
| 38 | `COc1ccc(Cl)cc1NC(=O)CCc1c(C)nc2nc(CN)nn2c1C` | - | 0 | 0 |
| 39 | `COc1ccc2c3c([nH]c2c1)[C@H]1C[C@H]2[C@H](C[C@@H](O)[C@H](OC)[C@H]2CO)CN1CC3` | 0 | 0 | 0 |
| 40 | `C[C@@H]1CN(C[C@@H]2CN(C(=O)Cc3cccs3)C[C@@H]2CO)C[C@H](C)O1` | 0 | 0 | 0 |
| 41 | `Cc1cccc(OCC(O)Cn2nc(C)cc2C)c1` (centres unmarked) | 0 | 0 | 0 |
| 42 | `CC(O)c1nc2c(c(=O)n(C)c(=O)n2C)n1C` (centres unmarked) | 0 | 0 | 0 |
| 43 | `CNCCCC12CCC(c3ccccc31)c1ccccc12` | 0 | 0 | 0 |
| 44 | `COc1cccc(CN2c3ccccc3C3=C(C(c4ccccc4F)C(C#N)=C(N)O3)S2(=O)=O)c1` (centres unmarked) | - | 0 | 0 |
| 45 | `Nc1nc(N2CC[C@H]3CC[C@@H](C2)N3)c2cn[nH]c2n1` | 0 | 0 | 0 |
| 46 | `N[C@@H]1c2ccccc2C2(CCN(C(=O)Cc3c[nH]c4ccccc34)CC2)[C@H]1O` | 0 | 0 | 0 |

The first 4 entries again:

| compound | SAM-II | PreQ1 | TPP |
|---|---|---|---|
| `Cc1ccc2c(c1)C(NC(=O)CCc1cc3n(n1)CCNC3)CC(C)(C)O2` (centres unmarked) | 0 | 0 | 0 |
| `CN1CCN(C2=c3ccccc3=Nc3ccc(Cl)cc3N2)CC1` | 0 | 0 | 0 |
| `CN1CCN(c2ncc(-c3cc(Cl)cc(Cl)c3Cl)c(N)n2)CC1` | 0 | 0 | 0 |
| `Cc1ccc(-c2noc(CNc3cc(C)cc(C)c3)n2)cc1` | 0 | 0 | 0 |

Calls as published in the ROBIN set (doi:10.1002/anie.202211358).